Measured values as given in patent publication US20230233580A1, “USE OF OXYGENATED CHOLESTEROL SULFATES FOR CANCERS AND NON-CANCEROUS TRANSFORMATIONS RELATED TO EPSTEIN-BARR VIRUS” (priority 2020, published 2023).
For at least one compound, name, drawing or mass did not settle the structure.

Key:
[1] = Tissue distribution by quantitative whole body autoradiography, oral dose; assay type: in vivo, male Sprague Dawley rats; details: oral (gavage) 75 mg/kg
[2] = Tissue distribution by quantitative whole body autoradiography, intravenous dose; assay type: in vivo, male Sprague Dawley rats; details: intravenous 10 mg/kg, Group 3
Experimental: Nine male Sprague Dawley rats (Group 1) were designated for the pharmacokinetic phase, 3 male Sprague Dawley rats (Group 2) for the excretion mass balance phase, and 7 male Sprague Dawley rats (Group 3) and 9 male Long Evans rats (Group 4) for the tissue distribution phase. […] Blood samples were collected from all Group 1 animals at approximately 0.083, 0.25, 0.5, 1, 2, 4, 8, 12, 24, 48, and 72 hours post-dose. Urine and feces were collected from all Group 2 animals periodically through 168 hours post-dose. […] Following blood collection, animals were euthanized by CO2 inhalation and carcasses frozen in a dry ice/hexane bath for processing by quantitative whole body autoradiography. Whole blood, plasma, urine, feces, cage rinse, and cage wash were analyzed for total radioactivity by liquid scintillation counting.

[3] = Plasma pharmacokinetics of radioactivity, oral dose; assay type: in vivo; details: single oral (gavage) dose 75 mg/kg, rats, total radioactivity

With `C[C@H](CCCC(C)(C)O)[C@H]1CC[C@H]2[C@@H]3CC=C4[14CH2][C@@H](OS(=O)(=O)O)CC[C@]4(C)[C@H]3CC[C@]12C` [[4-^14C]-25HC3S] the “whole blood Cmax” value [1] was 2850 ng equiv/g, the “whole blood Cmax” value [2] was 8530 ng-equiv/g and the “plasma Cmax” value [3] was 3800 ng equiv./g.
